We go through one compound from publication PMC7199185 (ACS applied materials & interfaces, 2019).

≈ marks a conversion by molar mass, not a printed value.

The test system of assay [1] is Staphylococcus aureus JE2 MRSA. The assay can be described thus: Broth microdilution MIC. The format is cell-based. To be noted: pH 7, read-out: MIC Sa (S. aureus JE2 MRSA).
Assay [2] has as its system Staphylococcus aureus LAC MRSA. Description: Broth microdilution MIC. Format: cell-based. To be noted: pH 7, read-out: MIC Sa (S. aureus LAC MRSA). (In general: Broth dilution looks for growth in wells or tubes with falling amounts of substance.)

As for `CN[C@H](CC(C)C)C(=O)N[C@H]1C(=O)N[C@@H](CC(N)=O)C(=O)N[C@H]2C(=O)N[C@H]3C(=O)N[C@H](C(=O)N[C@H](C(=O)O)c4cc(O)cc(O)c4-c4cc3ccc4O)[C@H](O)c3ccc(c(Cl)c3)Oc3cc2cc(c3O[C@@H]2O[C@H](CO)[C@@H](O)[C@H](O)[C@H]2O[C@H]2C[C@](C)(N)[C@H](O)[C@H](C)O2)Oc2ccc(cc2Cl)[C@H]1O` [Van, Vancomycin], the MIC in assay [1] and in assay [2] was 2 µg/mL (≈ 1.38 µM) in each case.
